PubChem BioAssay AID720504 (National Center for Advancing Translational Sciences (NCATS), 2013)
The whole screen tested about 360,000 compounds, of which about 10,000 (2.8%) were called active. The shares of active, inactive and inconclusive entries below differ from those in the screen. Calls follow the shape of the dose curve; as a rule, active = well fitted inhibition curve with a large enough effect; inconclusive = small, poorly fitted or top-dose-only effect; inactive = flat fitted curve, though single readings scatter. Potencies beside an inconclusive call are fits to weak or partial responses and may not hold up.

Protein sequences, listed by entry. Tags and fused reporters are not part of them.
UniProt P53350, whole entry, looked up: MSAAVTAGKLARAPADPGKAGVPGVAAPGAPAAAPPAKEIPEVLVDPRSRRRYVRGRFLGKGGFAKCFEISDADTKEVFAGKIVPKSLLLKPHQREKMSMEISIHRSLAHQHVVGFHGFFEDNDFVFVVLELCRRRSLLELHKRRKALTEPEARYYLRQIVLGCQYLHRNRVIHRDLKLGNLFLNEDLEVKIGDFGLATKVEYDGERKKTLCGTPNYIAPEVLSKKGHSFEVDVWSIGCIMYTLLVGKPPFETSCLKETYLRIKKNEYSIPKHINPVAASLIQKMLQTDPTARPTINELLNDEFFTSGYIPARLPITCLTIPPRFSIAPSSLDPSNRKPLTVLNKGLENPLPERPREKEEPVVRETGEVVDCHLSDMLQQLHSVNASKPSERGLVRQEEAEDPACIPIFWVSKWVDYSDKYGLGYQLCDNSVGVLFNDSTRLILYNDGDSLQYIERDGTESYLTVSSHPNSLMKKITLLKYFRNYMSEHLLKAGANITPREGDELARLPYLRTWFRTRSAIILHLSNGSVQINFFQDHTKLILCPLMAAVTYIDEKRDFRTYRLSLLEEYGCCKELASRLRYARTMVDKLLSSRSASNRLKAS

The molecules below were run against Serine/threonine-protein kinase PLK1 (Homo sapiens) (UniProt P53350) (assay: qHTS for Inhibitors of PLK1-PDB (polo-like kinase 1 - polo-box domain): Primary Screen). Details: Plk1 PBD binding of FITC phosphopeptide, fluorescence polarization.
% is scaled to controls: 0 for no effect and ±100 for the full control effect; potency is read from the fitted curve at half-maximal effect.
Also: nearly all actives have a fitted effect of over 65% in size.
For max response, negative = inhibition in this document: series mostly up to about 57 µM.

Row | Compound | Potency | max response, negative = inhibition
1 | CC(C)CCN1CCC(n2nccc2NC(=O)C2CCOC2)CC1 (configuration not stated) | inconclusive: 23.8 µM [inhibitor, single point] | 
2 | COc1ccc(-c2csc(NC3CCCCC3)n2)c(OC)c1 | inconclusive: 23.8 µM [inhibitor, single point] | 
3 | O=C1CN(C(=O)CSc2nnnn2C2CC2)c2ccccc2N1 |  | inactive: -1.82%
4 | Cc1nn(-c2nccs2)c2c1C(=O)CC(C)(C)C2Br (configuration not stated) |  | inactive: -28.7%
5 | Cc1ccccc1-c1nsc(SCC(=O)NCc2ccc3c(c2)OCO3)n1 | inconclusive: 18.9 µM [inhibitor, partial curve] | 
6 | CCCc1nc2ccccc2c(C(=O)OCC(=O)NCc2ccc3c(c2)OCO3)c1CC |  | inactive: -7.44%
7 | CCc1noc(C)c1C(=O)Nc1nc(-c2ccc(Cl)cc2Cl)cs1 |  | inactive: 1.24%
8 | Nc1ccccc1SC(CC(=O)c1ccccc1)c1cccc([N+](=O)[O-])c1 (configuration not stated) | inconclusive: 2.67 µM [inhibitor, partial curve] | 
9 | COC(=O)c1ccccc1NC(=S)NC(=O)c1ccccc1 | active: 26.7 µM | 
10 | Cc1cc(C(F)(F)F)nn1CC(=O)N1CCOCC1 | inconclusive: 37.7 µM [inhibitor, single point] | 
11 | Cc1noc(C)c1C(=O)OCC(=O)c1cc(C)n(Cc2ccccc2Cl)c1C |  | inactive: 1.29%
12 | Nc1nc(SCc2ccccc2)ns1 | inconclusive: 29.9 µM [inhibitor, partial curve] | 
13 | Cc1cc(C)nc(OC(C(=O)O)C(OCCc2ccccc2)(c2ccc(F)cc2)c2ccc(F)cc2)n1 (configuration not stated) | inconclusive: 23.8 µM [inhibitor, single point] | 
14 | Cc1cccc(OC(C)C(=O)OCC(=O)Nc2sccc2C(N)=O)c1 (configuration not stated) |  | inactive: -3.64%
15 | CCCCC1CC(=O)NC1(C(=O)OCC)C(=O)OCC (configuration not stated) |  | inactive: -6.36%
16 | CN1CCN(C(=S)NC(=O)c2ccc(-c3ccccc3)cc2)CC1 |  | inactive: 9.62%
17 | Cc1[nH]c(C)c(S(=O)(=O)NCCc2ccc(S(N)(=O)=O)cc2)c1C(=O)N1CCCC1 | active: 26.7 µM | 
18 | Cc1ccccc1S(=O)(=O)NC1OC(=O)C(Oc2ccccc2)=C1Br (configuration not stated) | inconclusive: 16.8 µM [inhibitor, partial curve] | 
19 | CC(NC(N)=O)C(=O)Nc1ccc(Cl)c(S(=O)(=O)Nc2ccc(Cl)cc2)c1 (configuration not stated) |  | inactive: -13.7%
20 | COc1cc(/C=C2\SC(=Nc3ccccc3)N(Cc3ccco3)C2=O)ccc1OC(C)C(=O)O (configuration not stated) | inconclusive: 29.9 µM [inhibitor, single point] | 
21 | Nc1nnc(CSCc2ccc(Cl)cc2Cl)s1 | active: 18.9 µM | 
22 | CCC(c1nnnn1Cc1ccco1)N1CCN(c2cc(Cl)ccc2C)CC1 (configuration not stated) | inconclusive: 0.0119 µM [inhibitor, full curve, poor fit] | 
23 | CC(C)(C)c1ccc(C(=O)Nc2ccc(S(N)(=O)=O)cc2)cc1 | inconclusive: 37.7 µM [inhibitor, single point] | 
24 | C=CCOC(=O)c1cc(-c2ccc(/C=C3\C(=O)NC(=O)C(C#N)=C3C)o2)ccc1Cl | active: 5.97 µM | 

Row | Compound | Potency | max response, negative = inhibition
25 | COc1ccccc1-c1ccc(/C=C2/C=C(C)OC2=O)o1 | inconclusive: 21.2 µM [inhibitor, partial curve] | 
26 | COc1ccc(-n2c(SCC(=O)NCc3ccco3)nc3sc4c(c3c2=O)CCN(C)C4)cc1 | inconclusive: 37.7 µM [inhibitor, partial curve, poor fit] | 
27 | Clc1ccc(-c2nn3c(C4COc5ccccc5O4)nnc3s2)cc1 (configuration not stated) | active: 21.2 µM | 
28 | CCC(C)Nc1nc(N)c([N+](=O)[O-])c(NCc2ccccc2)n1 (configuration not stated) | active: 29.9 µM | 
29 | O=C1CN(c2ccccc2)C(=S)N1C(=O)c1ccc(Br)cc1 | active: 23.8 µM | 
30 | COC(=O)c1oc(-c2ccccc2)nc1C |  | inactive: -4.48%
31 | O=C(NC(=S)N(Cc1ccccc1)c1ccccn1)C1CCCCC1 |  | inconclusive: -30.3% [inhibitor]
32 | CN(C)C(=O)c1cn(-c2ccc(Cl)cc2)c(=O)c2ccccc12 | inconclusive: 21.2 µM [inhibitor, single point] | 
33 | COC(=O)C(C)Sc1n[nH]c(=S)s1 (configuration not stated) | inconclusive: 26.7 µM [inhibitor, single point] | 
34 | COc1cc(/C=C/C(=O)OCC(=O)c2ccc3c(c2)NC(=O)CO3)ccc1OC(F)F | active: 18.9 µM | 
35 | COc1ccc(/C=N\n2nnc3ccccc32)cc1 |  | inactive: -5.38%
36 | CC(=C/C(=O)O)/C=C/c1ccc(Cl)o1 | inconclusive: 29.9 µM [inhibitor, partial curve] | 
37 | c1coc(CNc2ncnc3ccccc23)c1 | inconclusive: 23.8 µM [inhibitor, single point] | 
38 | O=C(C1=C(O)C(=O)N(CCN2CCOCC2)C1c1ccccc1)c1cccs1 (configuration not stated) | inconclusive: 13.4 µM [inhibitor, partial curve] | 
39 | COc1ccc(NC(=S)NC2CCCCCC2)c(OC)c1 | inconclusive: 23.8 µM [inhibitor, single point] | 
40 | Nc1cccc2c1C(=O)N(C(=O)/C=C/c1cccc(F)c1)C2=O | inconclusive: 11.9 µM [inhibitor, partial curve] | 
41 | CN(C)c1ccccc1-c1cc(NC=O)c2ncc(-c3cccc(C(F)(F)F)c3)n2c1 | inconclusive: 11.9 µM [inhibitor, partial curve] | 
42 | Cc1cc(SCC(N)=O)nc(SCC(=O)c2ccccc2)n1 |  | inconclusive: -30.9% [inhibitor]
43 | O=c1c2ccccc2nnn1COc1ccc(F)cc1Cl | inconclusive: 15 µM [inhibitor, partial curve] | 
44 | COC(=O)c1cc(NC(=O)c2ccccc2)c(=O)oc1C/C=N\OCc1ccc(Cl)cc1Cl |  | inactive: 19.7%
45 | CCN(CC)C(=O)c1[nH]cnc1C(=O)N[C@@H](Cc1ccccc1)C(=O)OC(C)(C)C |  | inconclusive: -30.4% [inhibitor]
46 | CCOC(=O)c1c(NC(C)=O)sc2c1CCC(C=NCCCN(CC)CC)=C2Sc1ccccc1 | inconclusive: 26.7 µM [inhibitor, partial curve] | 
47 | N#CC1=C2N=C(N)c3ccccc3N2C2=C(C(=O)CCC2)C1c1ccccc1F (configuration not stated) |  | inactive: -6.45%

Molecules shown so far with a nitro group on carbon:
Row | Compound | Potency | max response, negative = inhibition
8 | Nc1ccccc1SC(CC(=O)c1ccccc1)c1cccc([N+](=O)[O-])c1 (configuration not stated) | inconclusive: 2.67 µM [inhibitor, partial curve] | 
28 | CCC(C)Nc1nc(N)c([N+](=O)[O-])c(NCc2ccccc2)n1 (configuration not stated) | active: 29.9 µM | 
